{"source": "patent US20120100072A1", "about": "“PET IMAGING OF FIBROGENESIS” (GE HEALTHCARE LIMITED, priority 2009, published 2012)", "origin": "cited, not measured here", "test_system": "liver fibrosis in PBC", "conditions": "primary biliary cirrhosis (PBC); cited from earlier work", "note": "At least one compound was matched to its structure with a doubt left."}
{"smiles": "C[C@H](CCC(=O)O)[C@H]1CC[C@H]2[C@@H]3[C@@H](O)C[C@@H]4C[C@H](O)CC[C@]4(C)[C@H]3CC[C@]12C", "note": "[UDCA, ursodeoxycholic acid]", "values": [{"measurement": "effect on progression of liver fibrosis", "value": "significantly delays the progression"}]}
